Test results: patent US7935512B2, “Colicinogenic strain of E. coli” (The University of Manitoba, priority 2006, dated 2011)
At least one compound was matched to its structure with a doubt left.

Tested on: E. coli 2-12
Assay type: cell-based, Escherichia coli
Details: at 0.05 μg·ml^−1

C[C@H]1COc2c(N3CCN(C)CC3)c(F)cc3c(=O)c(C(=O)O)cn1c23 [levofloxacin]
resistance to levofloxacin: not resistant
